This test concerns the target HER3 on human tumor cell lines (human) (UniProt P21860). Briefly: flow cytometry on MDA-MB-453 and SW620 cells. On the technique in general: A flow cytometer gives signals particle by particle.

Amino acid sequences for entries named in this document (tags omitted). Residues count along the entry.
UniProt P21860, residues 20-1342: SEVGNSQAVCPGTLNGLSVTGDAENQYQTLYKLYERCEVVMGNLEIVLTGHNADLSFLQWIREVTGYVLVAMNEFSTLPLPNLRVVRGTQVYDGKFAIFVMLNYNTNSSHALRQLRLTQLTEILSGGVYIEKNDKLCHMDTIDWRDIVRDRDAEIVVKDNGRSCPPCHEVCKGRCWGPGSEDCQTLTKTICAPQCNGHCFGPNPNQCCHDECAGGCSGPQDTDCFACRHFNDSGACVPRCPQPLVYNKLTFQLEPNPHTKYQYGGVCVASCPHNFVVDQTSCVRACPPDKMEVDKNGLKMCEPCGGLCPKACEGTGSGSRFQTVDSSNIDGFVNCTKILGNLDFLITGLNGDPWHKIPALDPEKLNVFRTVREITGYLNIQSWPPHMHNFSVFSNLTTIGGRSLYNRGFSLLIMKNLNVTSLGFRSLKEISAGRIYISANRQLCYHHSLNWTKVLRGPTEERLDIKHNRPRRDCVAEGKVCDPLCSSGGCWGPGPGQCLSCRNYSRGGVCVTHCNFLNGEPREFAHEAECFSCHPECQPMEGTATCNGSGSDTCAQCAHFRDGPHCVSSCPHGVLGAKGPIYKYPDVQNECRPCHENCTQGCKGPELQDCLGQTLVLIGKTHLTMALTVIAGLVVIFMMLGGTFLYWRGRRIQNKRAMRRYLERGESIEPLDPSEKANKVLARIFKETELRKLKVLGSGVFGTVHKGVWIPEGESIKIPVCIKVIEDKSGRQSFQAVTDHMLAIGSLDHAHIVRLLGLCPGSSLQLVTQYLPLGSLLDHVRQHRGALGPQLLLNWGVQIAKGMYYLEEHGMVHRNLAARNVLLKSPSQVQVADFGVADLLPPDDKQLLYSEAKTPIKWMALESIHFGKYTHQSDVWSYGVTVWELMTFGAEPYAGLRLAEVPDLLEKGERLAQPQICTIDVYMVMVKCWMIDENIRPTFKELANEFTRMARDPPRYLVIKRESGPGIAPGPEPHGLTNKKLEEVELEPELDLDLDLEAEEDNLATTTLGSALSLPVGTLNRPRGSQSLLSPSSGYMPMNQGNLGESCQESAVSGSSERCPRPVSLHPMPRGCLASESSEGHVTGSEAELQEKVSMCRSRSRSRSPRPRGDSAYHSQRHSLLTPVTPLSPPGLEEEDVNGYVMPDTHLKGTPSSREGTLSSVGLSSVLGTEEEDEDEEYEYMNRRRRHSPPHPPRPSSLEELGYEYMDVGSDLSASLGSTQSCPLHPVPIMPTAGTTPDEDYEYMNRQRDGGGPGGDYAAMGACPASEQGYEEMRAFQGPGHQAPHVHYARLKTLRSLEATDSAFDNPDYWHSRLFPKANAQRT

Among the data in patent EP4606822A1 are binding values, retold here.

Results are given in words; binding and its absence hold for the method and conditions named. Some results given as binding are weak or reduced against the parent protein; the word gives no strength.

B1: humanized 4O3 antibody L2H4 (antibody, human IgG1, kappa, V domains shown)
VH: QVQLQESGPGLVKPSQTLSLTCTVSGISITTGNYRWSWIRQHPGKKLEWIGNIYYSGAITYNPSLKSRVTISRDTSKNQFFLKLSSVTAADTAVYYCARDGGTVVEGWYFDVWGKGTTVTVSS
VL: EIVLTQSPDTQSVTPKEKVTITCRASQSISDYLHWYQQKPDQSPKLLIKYASQSISGVPSRFSGSGSGTDFTLTINSLEAEDVGLYYCQSGRSFPLTFGGGTKVEIKR
As for B1, the binding result is given as “binds”.

B2: humanized 4O3 antibody L4H4 (antibody, human IgG1, kappa, V domains shown)
VH: QVQLQESGPGLVKPSQTLSLTCTVSGISITTGNYRWSWIRQHPGKKLEWIGNIYYSGAITYNPSLKSRVTISRDTSKNQFFLKLSSVTAADTAVYYCARDGGTVVEGWYFDVWGKGTTVTVSS
VL: EIVLTQSPDTQSVTPKEKVTITCRASQSISDYLHWYQQKPGQAPKLLIKYASQSISGVPSRFSGSGSGTDFTLTINSLEAEDFGLYYCQSGRSFPLTFGGGTKVEIKR
With B2, the binding result is “binds”.
